Experimental data from PubChem BioAssay AID504444 (National Center for Advancing Translational Sciences (NCATS), 2011).
In all, about 360,000 compounds went through this assay and about 7,500 (2.1%) were called active. This list was built around the results that the source calls inconclusive (neither active nor inactive); the mix of calls is not that of the screen. Calls follow the shape of the dose curve; as a rule, active = well fitted inhibition curve with a large enough effect; inconclusive = small, poorly fitted or top-dose-only effect, or effect the other way; inactive = flat fitted curve, though single readings scatter. Potencies beside an inconclusive call are fits to weak or partial responses and may not hold up.

experiment: Nrf2 qHTS screen for inhibitors; conditions: A549 ARE-Fluc reporter, luciferase luminescence, 18-24 h; series mostly up to 46 µM; also: nearly all actives have a fitted effect of over 60% in size
Summary of the method: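 Nrf2 activity is the BugLite luminescence, read 15 min after reagent at room temperature, following CellTiter-Fluor cytotoxicity readout (30 min, 37C). Compound titrations were applied for 18-24 h to 5000 A549 ARE_Fluc cells/well in 5% FBS OPTI-MEM.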
Potency is read from the fitted curve at half-maximal effect.

Structure (SMILES) | Potency
COc1cccc(OCC(O)CN2CCN(CCN3C(=O)c4cccc5cccc(c45)C3=O)CC2)c1 (stereo unspecified) | inconclusive: 20.6 µM [activator, single point]
CC(SC1=NS(=O)(=O)c2ccccc21)C(=O)O (stereo unspecified) | inactive
O=[N+]([O-])c1c(Nc2cccc(O)c2)cc(Cl)c2nonc12 | inconclusive: 29.1 µM [falling, single point]
Cc1ccc2ccc3c(c2n1)NS(=O)(=O)c1ccccc1-3 | active: 20.6 µM
COc1ccccc1Oc1ccc(N/C=C/C(=O)c2ccco2)cc1 | inconclusive: 5.17 µM [activator, partial curve]
CCn1c(SCc2ccccc2)nc2c(c1=O)SCC2 | inconclusive: 14.6 µM [falling, partial curve]
Cc1c(Cl)cccc1NC(=S)N1CCN(Cc2ccccc2)CC1 | inconclusive: 7.31 µM [falling, partial curve]
CCCCN(CC)CCNC(=O)c1nn(C)c2c1CS(=O)(=O)c1ccccc1-2 | inactive
CN(C)c1ccc(C2=NOC(CN3C(=O)c4ccccc4S3(=O)=O)C2)cc1 (stereo unspecified) | inconclusive: 9.2 µM [activator, partial curve]
Cc1ccc(C(=O)N/C(N)=N/c2nc3ccccc3o2)cc1 | inconclusive: 3.66 µM [activator, full curve]
C=C1CC2(OC1=O)c1ccccc1CCc1ccccc12 | active: 16.4 µM
Cc1ccc(C)c(N2CCN(CC(=O)Nc3ccc([N+](=O)[O-])cc3C(=O)Nc3ccccc3F)CC2)c1 | inconclusive: 2.31 µM [falling, full curve]
COc1ccc(-c2csc(N3C(=N)SCC3=O)n2)cc1 | inconclusive: 0.146 µM [activator, full curve, poor fit]
CCc1ccc(NC(=O)CCCc2nnc3n(C(C)CC)c(=O)c4sccc4n23)cc1 (stereo unspecified) | inactive
C=CCN(CC=C)CCOc1ccc(C)cc1[N+](=O)[O-] | inconclusive: 29.1 µM [activator, single point]
COC(=O)c1sccc1-c1ccc(/C=N/OC(=O)c2ccccc2)o1 | inactive
Cc1oc2ncnc(N3CCCCC3)c2c1C(=O)N1CCN(c2ccc(Cl)cc2)CC1 | inactive
COc1ccc(C(C)(C)C)cc1NC(=O)CCc1c(C)noc1C | inactive
O=C(O)c1ccc(Cl)c(S(=O)(=O)Nc2ccc(OCc3ccccc3)cc2)c1 | inconclusive: 0.092 µM [activator, full curve, poor fit]
COc1ccc(Nc2nc(N)c3ccccc3n2)c(OC)c1 | inconclusive: 5.8 µM [activator, full curve]
COc1ccccc1C(=O)Nc1ccc(S(=O)(=O)Nc2nc(C)cc(C)n2)cc1 | inconclusive: 23.1 µM [falling, partial curve, poor fit]
COc1ccc(S(=O)(=O)N(CC(=O)NCCc2ccccc2)c2ccc(Cl)cc2)cc1 | inactive
COc1ccc(-c2nnc(SCC(=O)N3c4ccccc4Sc4ccccc43)o2)cc1 | inconclusive: 29.1 µM [falling, single point]

Structure (SMILES) | Potency
CCOC(=O)c1ccccc1NC(=O)CSc1cn(CC(=O)N2CCCCCC2)c2ccccc12 | inconclusive: 29.1 µM [falling, single point]
OCC1OC(n2cnc3c(NCc4ccco4)ncnc32)C(O)C1O (stereo unspecified) | active: 7.31 µM
CC(C)(C)c1ccc(C(=O)Nc2ccc(NC(=O)c3ccco3)cc2)cc1 | active: 9.2 µM
N#CCC(=O)Nc1ncn(Cc2ccccc2Cl)n1 | inconclusive: 16.4 µM [falling, single point]
COc1ccc(OCc2cc(C(=O)N3CCOCC3)no2)c(Cl)c1 | inconclusive: 2.31 µM [activator, full curve]
CN(C)c1ccc(NC(=O)c2ccc([N+](=O)[O-])cc2Cl)cc1 | inconclusive: 4.61 µM [activator, partial curve]
COc1c(C)cc(C(=O)C2CCCN(C(=O)CCc3scnc3C)C2)cc1C (stereo unspecified) | inconclusive: 32.6 µM [falling, single point]
O=C(O)c1ccccc1CSc1nc2ccccc2s1 | inconclusive: 4.11 µM [activator, partial curve, poor fit]
CCOc1ccc(C(=O)c2oc3ccccc3c2NC(=O)c2cc(=O)c3ccc(C)cc3o2)cc1 | inactive
FC(F)(F)c1cc(NC2CCCCC2)ccn1 | inconclusive: 18.4 µM [falling, single point]
Cc1ccc(S(=O)(=O)NCc2cccnc2)cc1C(=O)NC1CCCCC1 | inconclusive: 32.6 µM [falling, single point]
Cc1cccc(N=C2NC(=O)S/C2=C\c2ccco2)c1 | inconclusive: 29.1 µM [activator, single point]
Cc1ccc(NC(=O)c2c(C)nc3sc(C(=O)NC4CCCC4)c(N)c3c2-c2ccco2)c(C)c1 | inactive
CCN1C(=O)c2ccc(C(=O)NCc3ccco3)cc2C1=O | inactive
C=CC1CN(C(=O)OCC(Cl)(Cl)Cl)C2CC3c4ccc(OC)cc4NC3C3CC1C2CO3 (stereo unspecified) | inconclusive: 29.1 µM [falling, single point]
COc1ccc(CCC(=O)Nc2nnc(C(F)(F)F)s2)cc1 | inactive
COc1ccc(S(=O)(=O)N2CCOCC2)cc1NC(=O)COC(=O)c1ccc([N+](=O)[O-])s1 | inactive
COc1ccc(N2CCN(C(=O)CCc3ccc(S(=O)(=O)NCC(C)C)cc3)CC2)cc1 | active: 25.9 µM
CCOc1ccc(CNC(=S)N/N=C/c2ccc(OC)c(OC)c2)cc1 | inactive
O=C(Cc1ccccc1)Nc1sc2c(c1C(=O)Nc1ccccc1Cl)CCCC2 | inactive
Cc1ccc(NC(=O)N(Cc2ccco2)C(C)c2ccco2)cc1C (stereo unspecified) | inconclusive: 25.9 µM [falling, single point]
CC(OC(=O)C1CC2CCCC(C1)C2=O)C(=O)Nc1cccc([N+](=O)[O-])c1 (stereo unspecified) | inconclusive: 23.1 µM [falling, partial curve]
COc1ccc(OC)c(-c2nnc3n(CCc4ccccc4)c(=O)c4ccccc4n23)c1 | inconclusive: 29.1 µM [falling, single point]

Rewritten as a markdown table: 2 of the compounds above

| Structure (SMILES) | Potency |
| --- | --- |
| CCc1ccc(NC(=O)CCCc2nnc3n(C(C)CC)c(=O)c4sccc4n23)cc1 (stereo unspecified) | inactive |
| C=CCN(CC=C)CCOc1ccc(C)cc1[N+](=O)[O-] | inconclusive: 29.1 µM [activator, single point] |
